Assay results: patent publication US6399658B1, “Composition containing ascorbic acid” (Sumitomo Pharmaceuticals Co., Ltd., priority 1996, dated 2002)

Tested on: rat hepatocytes primary culture
Assay: Inhibition of gluconeogenesis in rat hepatocytes primary culture
Format: cell-based
Conditions: 6 hr; for Glucose levels in the medium: Hanks solution containing 0.1% fructose
Experimental: Hepatocytes were isolated from a male Wistar rat. The isolated hepatocytes were grown on gelatin coated 24-well plate (3×10^5 cells/well) in Williams E medium containing 10 nM dexamethasone and 5% fetal calf serum under the 37° C., 5% CO2/95% air condition for 24 hr.
After the plates of hepatocytes primary culture were washed by phosphate buffer twice, the medium were changed to Hanks solution containing 0.1% fructose (depletion glucose). […] Glucose levels (mg/dL) in the medium were measured.

CN(C)C(=N)NC(=N)N.Cl [Metformin hydrochloride, 1,1-dimethylbiguanide hydrochloride]
Glucose levels in the medium (1 mM (each 1 mM for the combination)): 17.7 mg/dL
Glucose levels in the medium (3 mM (each 3 mM for the combination)): 15.2 mg/dL
Effect on gluconeogenesis (in words) (1 or 3 mM): Gluconeogenesis was reduced
